In patent publication US6372747B1, “Farnesyl protein transferase inhibitors” (Schering Corporation, priority 1998, dated 2002):
Some of these results come from one statement about several compounds together. For part of these data: For at least one compound, name, drawing or mass did not settle the structure.

Protein sequences, listed by entry. Tags and fused reporters are not part of them.
UniProt Q02293, whole entry: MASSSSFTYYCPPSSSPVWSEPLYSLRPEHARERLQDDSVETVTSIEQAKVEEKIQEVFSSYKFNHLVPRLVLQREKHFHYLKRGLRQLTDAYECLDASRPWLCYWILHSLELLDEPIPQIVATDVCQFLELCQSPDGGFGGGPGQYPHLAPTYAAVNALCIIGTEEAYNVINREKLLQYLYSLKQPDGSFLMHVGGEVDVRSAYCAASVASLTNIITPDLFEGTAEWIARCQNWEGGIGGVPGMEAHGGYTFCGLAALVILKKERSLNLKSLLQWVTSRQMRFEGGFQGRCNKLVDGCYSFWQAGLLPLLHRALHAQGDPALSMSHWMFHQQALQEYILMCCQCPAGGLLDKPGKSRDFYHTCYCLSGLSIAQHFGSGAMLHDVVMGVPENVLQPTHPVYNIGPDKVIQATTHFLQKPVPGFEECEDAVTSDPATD

Legend:
[1] = test system: Human tumor cells; experiment: Soft Agar Assay (anchorage-independent growth); type: cell-based; conditions: range stated for the group unless single
Experimental: Anchorage-independent growth is a characteristic of tumorigenic cell lines. Human tumor cells can be suspended in growth medium containing 0.3% agarose and an indicated concentration of a farnesyl transferase inhibitor. The solution can be overlayed onto growth medium solidified with 0.6% agarose containing the same concentration of farnesyl transferase inhibitor as the top layer. After the top layer is solidified, plates can be incubated for 10-16 days at 37° C. under 5% CO2 to allow colony outgrowth. After incubation, the colonies can be stained by overlaying the agar with a solution of MTT (3-[4,5-dimethyl-thiazol-2-yl]-2,5-diphenyltetrazolium bromide, Thiazolyl blue) (1 mg/mL in PBS). Colonies can be counted and the IC50's can be determined.

[2] = target: farnesyl protein transferase (Rattus norvegicus, UniProt Q02293+Q04631); experiment: FPT IC50 (inhibition of farnesyl protein transferase, in vitro enzyme assay); type: biochemical; conditions: value is the range stated for the group unless single

Compound	Soft Agar IC50 [1]	IC50 [2]	IC50 [1]
Cc1ncc(CCN(CC2CC2)C(=O)[C@H]2CN([C@H]3c4ccc(Cl)cc4CCc4cccnc43)CCN2C(=O)OC(C)(C)C)n1C [Example 365]	<5 to >500	≤ 6.7 nM	
Cc1cn(CC(O)(CNC(=O)[C@H]2CN(C3c4ccc(Cl)cc4CCc4cccnc43)CCN2C(=O)OC2CCCCC2)c2ccccc2)cn1 (stereo partly drawn) [Example 337]	<5 to >500	≤ 6.7 nM	
CCCCC(=O)N1CCN([C@H]2c3ccc(Cl)cc3CCc3cc(Br)cnc32)C[C@@H]1C(=O)N(CCCn1ccnc1)Cc1ccccc1 [Example 152]	<5 to >500	≤ 6.7 nM	
CCn1cncc1CCN(CC1CC1)C(=O)[C@H]1CN([C@@H]2c3ccc(Cl)cc3CCc3cccnc32)CCN1C(=O)OC1CCCCC1 [Example 332]	<5 to >500	≤ 6.7 nM	
CCCCCCOC(=O)N1CCN([C@H]2c3ccc(Cl)cc3CCc3cc(Br)cnc32)C[C@@H]1C(=O)N(CCCn1ccnc1)Cc1ccccc1 [Example 166]	<5 to >500	≤ 6.7 nM	
CS(=O)(=O)N1CCN(C2c3ccccc3CCc3cccnc32)C[C@@H]1C(=O)N(CCCn1ccnc1)Cc1ccccc1 (stereo partly drawn) [Example 214]	<5 to >500		
Cn1cncc1CCCN(Cc1ccccc1)C(=O)[C@H]1CN([C@@H]2c3ccc(Cl)cc3CCc3cccnc32)CCN1C(=O)OC1CCCCC1 [Example 336]	<5 to >500	≤ 6.7 nM	
Cc1nc[nH]c1CCN(CC1CC1)C(=O)[C@H]1CN([C@H]2c3ccc(Cl)cc3CCc3cccnc32)CCN1C(=O)OC(C)(C)C [Example 366]	<5 to >500	≤ 6.7 nM	
Cc1ncc(CCN(CC2CC2)C(=O)[C@H]2CN([C@H]3c4ccc(Cl)cc4CCc4cccnc43)CCN2C(=O)OC2CCCCC2)n1C [Example 333]	<5 to >500	≤ 6.7 nM	
Cc1nc[nH]c1CCN(CC1CC1)C(=O)[C@H]1CN([C@H]2c3ccc(Cl)cc3CCc3cccnc32)CCN1C(=O)OC1CCCCC1 [Example 334]	<5 to >500	≤ 6.7 nM	
CCCCCCCCOC(=O)N1CCN([C@H]2c3ccc(Cl)cc3CCc3cc(Br)cnc32)C[C@@H]1C(=O)N(CCCn1ccnc1)Cc1ccccc1 [Example 167]	<5 to >500		
O=C(NCCn1ccnc1CO)[C@H]1CN(C2c3ccc(Cl)cc3CCc3cc(Br)cnc32)CCN1C(=O)NC1CCCCC1 (stereo partly drawn) [Example 274]	<5 to >500	≤ 6.7 nM	
CCn1cncc1CCN(CC1CC1)C(=O)[C@H]1CN([C@H]2c3ccc(Cl)cc3CCc3cccnc32)CCN1C(=O)OC1CCCCC1 [Example 331]	<5 to >500	≤ 6.7 nM	
Cn1cncc1CCCN(Cc1ccccc1)C(=O)[C@H]1CN([C@H]2c3ccc(Cl)cc3CCc3cccnc32)CCN1C(=O)OC1CCCCC1 [Example 335]	<5 to >500	≤ 6.7 nM	
Cc1cn(CCCN(Cc2ccccc2)C(=O)[C@H]2CN([C@H]3c4ccc(Cl)cc4CCc4cccnc43)CCN2C(=O)OC2CCCCC2)cn1 [Example 225]			2 to 300 nM
CC(C)COC(=O)N1CCN(C2c3ccc(Cl)cc3CCc3cc(Br)cnc32)CC1C(=O)N(CCCc1c[nH]cn1)Cc1ccccc1 (stereo not drawn) [Example 242]		≤ 6.7 nM	
CC(C)OC(=O)N1CCN([C@@H]2c3ccc(Cl)cc3CCc3cccnc32)C[C@@H]1C(=O)N(CCCn1ccnc1)Cc1ccccc1 [Example 187]		≤ 6.7 nM	
O=C([C@H]1CN([C@H]2c3ccc(Cl)cc3CCc3cc(Br)cnc32)CCN1C(=O)CC1CCCCC1)N(CCCn1ccnc1)Cc1ccccc1 [Example 222]		≤ 6.7 nM	
Cc1cn(CCCN(Cc2ccccc2)C(=O)[C@H]2CN([C@@H]3c4ccc(Cl)cc4CCc4cccnc43)CCN2C(=O)OC2CCCCC2)c(C)n1 (single isomer, unassigned) [Example 312]		≤ 6.7 nM	
CC(C)(C)NC(=O)N1CCN(C2c3ccc(Cl)cc3CCc3cc(Br)cnc32)C[C@@H]1C(=O)NCCc1cncn1Cc1ccc(F)cc1 (stereo partly drawn) [Example 302 Step B]		≤ 6.7 nM	
CCCCOC(=O)N1CCN([C@H]2c3ccc(Cl)cc3CCc3cc(Br)cnc32)C[C@@H]1C(=O)N(CCCn1ccnc1)Cc1ccccc1 [Example 165]	<5 to >500		
